The nature of the experiment: qHTS Assay to Find Inhibitors of Chronic Active B-Cell Receptor Signaling. The settings on record: ABC-DLBCL IkBa-CBG/CBR reporter, luminescence ratio (green luciferase fused to IkBa over red control in TMD8 lymphoma cells), 4 h. The essentials: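 TMD8 human ABC-DLBCL cells with doxycycline-inducible IκBα–green luciferase fusion and unfused red luciferase, in 0.5% FBS medium; compounds up to 46 uM, 4 h at 37C. Green/red luminescence ratio, filter-overlap corrected, fitted to concentration-response curves.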
Background: Quantitative high-throughput screening tests each substance at several concentrations.

Setting [1] is: measured here: CBR red luminescence, cell number.
Where [2] appears, read: measured here: IkBa-CBG green luminescence.

SMILES strings stand for the structures. This is one part of the list. Further columns of the screen follow, without active or inactive calls. Most of these compounds were active or inconclusive in the main read-out, so they are no random draw. Potencies come from curve fits of mixed quality, noted in brackets.

In the case of `O=C(Nc1ncccc1O)c1ccc2c(c1)OCO2`, the concentration at half-maximal activity (AC50) (commonly the concentration giving half of the maximal activity seen) under setting [1] was 0.146 µM [falling, full curve, poor fit].
The same measure, in the same setting: the figure for `CCNCc1cc(Cl)c(OCc2ccccc2)c(OCC)c1` is 10 µM [falling, partial curve].
The same measure, in the same setting: the figure for `CCC(C)NC(=O)C(CCSC)NC(=O)c1ccccc1` (stereo unspecified) is 6.51 µM [falling, single point].
`COc1ccc(C2Nc3ccccc3C(=O)N2c2ccccc2)cc1CSc1ccccn1` (stereo unspecified): under setting [1], the half-maximal activity concentration (AC50) is 29.1 µM [falling, single point].
Still for that read-out and setting: to `Cc1ccccc1/C=N\NC(=O)c1ccccc1-n1cccc1` belongs 35.5 µM [falling, single point].
Same read-out and setting: the figure for `COc1ccc2nc(C)cc(SCC(=O)N3CCCCC3)c2c1` is 25.1 µM [falling, single point].
As for `COc1ccc(Br)cc1C(=O)Nc1cccc(C)c1C`, the AC50 under setting [1] is 29.1 µM [rising, single point].
As to `COc1c(OC(C)=O)c(=O)n2c3ccccc3c3ccnc1c32`, the concentration at half-maximal activity (AC50) under setting [1] is 0.731 µM [falling, full curve, poor fit].
Take `CC(=O)Nc1cccc(NC(=O)CSc2nc(C3CC3)nc3ccccc23)c1`: the AC50 under setting [1] was 14.1 µM [falling, partial curve].
Same read-out and setting: the figure for `O=C1CC(c2ccc3c(c2)OCCO3)Oc2ccc([N+](=O)[O-])cc21` (stereo unspecified) is 3.98 µM [falling, full curve]; for `Cc1cccc(OCc2n(CC(=O)OC3CC(C)CCC3C(C)C)c3ccccc3[n+]2C)c1` (stereo unspecified) it is 35.5 µM [falling, single point].
With `N#Cc1c(N2C(=O)Nc3ccccc3N2O)sc2c1CCCC2`, under setting [1], the half-maximal activity concentration (AC50) is 12.6 µM [falling, partial curve, poor fit].
Still for that read-out and setting: the figure for `COc1cccc(N2C(=O)CC(N3CCc4ccccc43)C2=O)c1` (stereo unspecified) is 10.3 µM [falling, partial curve]; for `O=C(N/N=C/c1c[nH]c2ccccc12)c1cc(-c2ccccc2)n[nH]1` it is 18.4 µM [falling, partial curve]; for `O=C(Nc1ccc2c(c1)OCO2)C(c1ccccc1)N1CCC2(CC1)OCCO2` (stereo unspecified) it is 4.11 µM [rising, full curve].
The same measure, in the same setting: the figure for `O=C(NCC1CCCO1)c1ccc(CS(=O)(=O)c2ccc(Br)cc2)o1` (stereo unspecified) is 3.66 µM [rising, full curve, poor fit].
In the case of `O=C1OCCC1Sc1nnc(-c2ccc(Cl)cc2Cl)o1` (stereo unspecified), the AC50 under setting [1] is 22.4 µM [falling, single point].
For the molecule `O=C(Nc1ccc2[nH]ncc2c1)c1ccccc1Cl`, under setting [1], the concentration at half-maximal activity (AC50) was 4.47 µM [falling, partial curve].
On the same count and under the same terms, the figure for `CCCS(=O)(=O)C/C(N)=N/OC(=O)c1ccc(Cl)cc1` is 20 µM [rising, partial curve, poor fit]; for `O=C(O)/C=C/C(=O)NNC(=O)c1cccc(Br)c1` it is 29.1 µM [falling, single point].
As for `C[C@H](Nc1ncnc2sc3c(c12)CCC3)C(=O)O`, the AC50 under setting [1] was 3.55 µM [falling, single point].
Turning to `Cc1c(/C=N\NC(=O)c2ccc(F)cc2)cnn1C`, under setting [1], the AC50 was 6.51 µM [falling, partial curve].
Still for that read-out and setting: to `O=C1Nc2ccccc2C(O)(C(=O)NCc2ccco2)N1c1ccc(Cl)c(Cl)c1` (stereo unspecified) belongs 1.12 µM [falling, partial curve, poor fit]; to `Clc1ccc(-c2cc(COc3ccccc3)on2)cc1`, 0.355 µM [rising, full curve, poor fit].
Still for that read-out and setting: the figure for `CC1CCN(C2=C(NS(=O)(=O)c3ccc(Cl)cc3)C(=O)c3ccccc3C2=O)CC1` is 13 µM [rising, partial curve, poor fit]; for `CCOC(=O)C1CCN(c2ncnc3c2cnn3-c2ccccc2)CC1` it is 7.31 µM [falling, partial curve, poor fit].
The same measure, in the same setting: the figure for `Cc1cccn2c(=O)c3cc(C(=O)NC4CCCCC4)c(=N)n(CCN4CCOCC4)c3nc12` is 0.1 µM [rising, full curve, poor fit]; for `O=C(Nc1nc(-c2cccc3ccccc23)cs1)c1cnccn1` it is 1.84 µM [rising, full curve, poor fit].
In the case of `C=CCSc1nnc(-c2ccc(Cl)cc2Cl)o1`, the AC50 under setting [1] was 0.708 µM [rising, full curve, poor fit].
Still for that read-out and setting: the figure for `COc1cccc2[nH]c3c(=O)n(CCN(C)C)cnc3c12` is 10 µM [falling, partial curve, poor fit]; for `COc1ccccc1NC1SC(=O)N(c2ccccc2)C1=O` (stereo unspecified) it is 0.224 µM [falling, full curve, poor fit].
Consider `CCOC(=O)c1c(C)[nH]c(C(=O)COC(=O)c2ccc([N+](=O)[O-])o2)c1C`, for which the half-maximal activity concentration (AC50) under setting [1] was 20.6 µM [rising, partial curve, poor fit].
On the same count and under the same terms, to `Cc1ccsc1/C=N\NC(=O)c1ccc2c(c1)OCO2` belongs 4.47 µM [falling, partial curve]; to `COc1ccc(C(C)(C)C)cc1NC(=O)c1ccoc1C`, 3.66 µM [rising, partial curve, poor fit]; to `CCc1cc2c(=O)c(-c3nc4ccccc4n3C)c(C)oc2c(CN(CC)CC)c1O`, 20 µM [falling, single point].
Same read-out and setting: to `N#Cc1ccccc1NC(=S)NC(=O)c1cccs1` belongs 15.8 µM [falling, single point]; to `Nc1c(C(=O)O)cnc2c(-c3ccc(Cl)cc3)cnn12`, 7.08 µM [rising, partial curve].
In the case of `COc1ccccc1-c1noc(-c2ccccc2)n1`, the AC50 under setting [1] is 18.4 µM [falling, single point].
On to `COc1cc(C2C(=O)N(C3CCCCCC3)CC(=O)N2CCC2=CCCCC2)ccc1OC(C)C` (stereo unspecified), for which the half-maximal activity concentration (AC50) under setting [1] is 15.8 µM [rising, partial curve].
The same measure, in the same setting: to `COCCCNc1nc2nonc2nc1N(C)CC1CCCN1C` (stereo unspecified) belongs 8.91 µM [rising, partial curve, poor fit]; to `CNCCCC1c2ccccc2C=Cc2ccccc21`, 2.24 µM [falling, partial curve, poor fit]; to `C=CCN(C(=O)c1cc(C)cc(C)c1)C1(C(=O)Nc2ccccc2)CCN(C(C)C)CC1`, 35.5 µM [falling, partial curve, poor fit].
On the same count and under the same terms, to `CCc1cccc(NC(=O)c2cnn(-c3ccccc3)c2C)c1` belongs 25.1 µM [falling, single point]; to `C=C(C)c1cccc(C(C)(C)NC(=O)Nc2ncccn2)c1`, 1.3 µM [falling, full curve, poor fit].
Consider `CCO[C@@H]1OC(C(=O)N2CCOCC2)=C[C@H](c2cn(C(C)=O)c3ccccc23)[C@H]1CCCO`, for which the AC50 under setting [1] was 20 µM [rising, single point].
The same measure, in the same setting: the figure for `COc1ccccc1C(=O)N1CCN(CCNC(=O)C(=O)Nc2ccc(Br)c(C)c2)CC1` is 17.8 µM [falling, partial curve, poor fit]; for `CCCN(CC(=O)Nc1cc(Cl)cc(Cl)c1)CC(=O)Nc1ccc(F)c(F)c1F` it is 23.1 µM [falling, single point].
Consider `Cn1cccc1/C=N/NC(=O)c1ccco1`, for which the half-maximal activity concentration (AC50) under setting [1] is 11.2 µM [falling, single point].
For `COc1ccc(C2c3ccc(O)cc3Oc3ncn(CCN4CCOCC4)c(=N)c32)cc1` (stereo unspecified), the AC50 under setting [2] was 8.91 µM [falling, partial curve, poor fit].
Take `CCCCCC(=O)NC(=S)Nc1ccc(N2CCOCC2)cc1`: the AC50 under setting [1] was 16.4 µM [rising, partial curve, poor fit].
Same read-out and setting: to `CC(=O)N1CCN(C(=S)c2ccc([N+](=O)[O-])cc2)CC1` belongs 6.51 µM [rising, partial curve, poor fit]; to `CCOC(=O)C1CCN(C(=O)c2cc(COc3ccc(OC)c4ccccc34)on2)CC1`, 2.51 µM [falling, full curve, poor fit]; to `COC(=O)C(CC(C)C)N(Cc1cc(OC)cc(OC)c1)S(=O)(=O)c1ccccc1Br` (stereo unspecified), 18.4 µM [falling, single point].
With `CN1CCN(C(=S)NC(=O)c2ccc(Br)cc2)CC1`, the half-maximal activity concentration (AC50) under setting [1] was 20 µM [rising, partial curve] and the AC50 under setting [2] is 22.4 µM [falling, single point].
Take `COC(=O)c1ccc(COc2ccc(/C=C/C(=O)c3ccc(OC)c(CSCC(=O)O)c3)cc2OC)cc1`: the concentration at half-maximal activity (AC50) under setting [1] was 35.5 µM [falling, single point].
`CC1=C(C(=O)OCc2ccccc2)C(c2ccccc2Br)NC(=O)N1` (stereo unspecified): the AC50 under setting [1] was 15.8 µM [falling, single point].
On the same count and under the same terms, the figure for `C/C=C/C(=O)OCC(=O)Nc1ccc(OC)c(OC)c1` is 3.55 µM [falling, partial curve, poor fit]; for `COc1cccc(/C=N/NC(=O)c2cccc3ccccc23)c1` it is 22.4 µM [falling, single point]; for `CCCCCCC[N+](CC)(CC)CCCCc1ccc(Cl)cc1` it is 20.6 µM [falling, single point].
For `Cc1cccc(C)c1NC(=O)NC1CC2CCC(C1)N2Cc1cccs1` (stereo unspecified), the AC50 under setting [1] was 1.64 µM [falling, full curve, poor fit].
Same read-out and setting: to `CCC(C)C1C(C#N)=C(N)Oc2n[nH]c(C)c21` (stereo unspecified) belongs 5.8 µM [falling, partial curve].
For the molecule `Cc1ccc(C)c(CN2C(=O)CSc3ccc(C(=O)NCC(C)CN4CCC(C)CC4)cc32)c1` (stereo unspecified), under setting [1], the concentration at half-maximal activity (AC50) was 35.5 µM [rising, single point].
Turning to `COC(=O)[C@]1(C)CCC[C@@]2(C)C3CC[C@@]4(C)C[C@]3(CCC21)CC(=O)N4Cc1ccc(OC)cc1` (stereo partly specified), under setting [1], the AC50 is 2.91 µM [falling, partial curve, poor fit].
On the same count and under the same terms, to `COc1ccc(NC(=O)/C(=C\c2ccncc2)NC(=O)c2ccccc2)cc1` belongs 14.1 µM [falling, partial curve, poor fit]; to `Cc1ccc(/C=N/NC(=O)c2ccccn2)o1`, 29.1 µM [falling, single point].

These data come from PubChem BioAssay AID493014 (National Center for Advancing Translational Sciences (NCATS), 2011).
